Values of other authors, collected in patent US11116842B2, “Methylene blue complex for treating skin disease and its use thereof” (D. R. NANO Co., Ltd., priority 2017, dated 2021).
At least one structure is not confirmed: it was looked up by name or label, or the drawing left a doubt.

Test system: skin disease such as acne
Settings: prior-art photosensitizers

COC(=O)CCC(=O)CN [MAL, Methyl-aminolevulinate]
Treatment effect: strong
